Where “and” joins values, the source holds several entries; their conditions need not be identical. Equal entries are not always repeated. Structures can show the parent of a compound that is named as a salt. ± gives the standard deviation of the averaged measurements. The list shows a part of the results. The data scatter; read single values as rough.

In this assay the test system is Salmonella enterica serovar Typhimurium ST313 D23580. Description: normalized bacterial growth (OD600 20 h minus 0 h, interquartile-mean normalized) (fraction of plate interquartile mean); higher = more bacterial growth (less inhibition). Conditions: LPM (pH 5.8, low phosphate, low Mg2+), concentration: 10 µM, temperature: 37 °C.
Compound `COc1ccc(-c2cc(=O)c3c(OC)c(OC)c(OC)c(OC)c3o2)cc1OC` registered a normalized bacterial growth of 0.962. On to `Nc1ccc(S(=O)(=O)O)cc1.Nc1ccc(S(=O)(=O)O)cc1.[Zn]`, for which the normalized bacterial growth is 1.07. In the case of `C#C[C@]1(O)CC[C@H]2[C@@H]3CCC4=Cc5oncc5C[C@]4(C)[C@H]3CC[C@@]21C` [Danazol] it was 0.963 ± 0.045. For the compound `C#C[C@]1(O)CC[C@H]2[C@@H]3CCC4=Cc5oncc5C[C@]4(C)[C@H]3CC[C@@]21C`, the normalized bacterial growth was found to be 0.789. With `O=C(Nc1ccc([N+](=O)[O-])cc1Cl)c1cc(Cl)ccc1O` [Niclosamide], the normalized bacterial growth was 1.23. For the compound `CCOc1ccc(Cc2nccc3cc(OCC)c(OCC)cc23)cc1OCC`, the normalized bacterial growth was found to be 0.773. The same measure for `CC12CC3CC(C)(C1)CC(N)(C3)C2` [Memantine hydrochloride]: 1.06; for `CC(C)=CCc1c(O)cc2oc(C)cc(=O)c2c1O`: 1.18; for `COc1ccc(-c2cc(=O)c3c(OC)c(OC)c(OC)c(OC)c3o2)cc1`: 1.02. In turn, `CN1c2ccccc2C(=O)N2CCc3c([nH]c4ccccc34)C21` (stereo in doubt) came in with a normalized bacterial growth of 1.03. In turn, `O=C1C[C@@H](c2ccc(O)c(O)c2)Oc2c1ccc(O[C@@H]1O[C@H](CO)[C@@H](O)[C@H](O)[C@H]1O)c2O` registered a normalized bacterial growth of 1.21.

`O=C1c2cccc(O)c2C(=O)c2c(O)cccc21` yielded a normalized bacterial growth of 0.579.

Consider `O=c1cc(N2CCOCC2)oc2c(-c3ccccc3)cccc12` ["LY-294,002 hydrochloride"], for which the normalized bacterial growth is 0.823. In the case of `CCOC(N)=O` it was 1.67; in that of `CCCCCCCCCCCC[C@@H](C(=O)O)[C@H](C)C(=O)O`, 1.14. The same measure for `CC(C)NNC(=O)c1ccncc1` [Iproniazid phosphate]: 1.11. `CCN(CC)CCNC(=O)c1cc(Br)c(N)cc1OC` had a normalized bacterial growth of 1.04.

The compound `CCCCC(=O)N(Cc1ccc(-c2ccccc2-c2nnn[nH]2)cc1)[C@H](C(=O)O)C(C)C` returned a normalized bacterial growth of 1.31. `C[C@H]1C(=O)CC[C@@H]2[C@]1(C)CC[C@H]1[C@@]2(C)CC[C@@]2(C)[C@@H]3CC(C)(C)CC[C@]3(C)CC[C@]12C` gave a normalized bacterial growth of 1.1 ± 0.057. `OC(CCN1CCCCC1)(c1ccccc1)c1ccccc1` came in with a normalized bacterial growth of 0.94. For `CCOC(=O)C1=C(C)NC(C)=C(C(=O)OC)C1c1cccc(Cl)c1Cl` (stereo not drawn) [Felodipine], the normalized bacterial growth was 0.913. Regarding `C[C@H](CCC(=O)O)[C@H]1CC[C@H]2[C@@H]3C(=O)C[C@@H]4CC(=O)CC[C@]4(C)[C@H]3CC(=O)[C@]12C` [Dehydrocholic acid], the normalized bacterial growth was determined as 1.21. For the compound `C[C@H](CCC(=O)O)[C@H]1CC[C@H]2[C@@H]3C(=O)C[C@@H]4CC(=O)CC[C@]4(C)[C@H]3CC(=O)[C@]12C`, the normalized bacterial growth was 0.948 and 0.873. `CO[C@H]1C[C@H](O[C@@H]2/C(C)=C/C[C@@H]3C[C@@H](C[C@]4(CC[C@H](C)[C@@H](C5CCCCC5)O4)O3)OC(=O)[C@@H]3C=C(C)/C(=N/O)[C@H]4OC/C(=C\C=C\[C@@H]2C)[C@]43O)O[C@@H](C)[C@@H]1O` yielded a normalized bacterial growth of 0.754. The compound `Cc1nc2sccn2c(=O)c1CCN1CCC(=C(c2ccc(F)cc2)c2ccc(F)cc2)CC1` [Ritanserin] showed a normalized bacterial growth of 0.695.

Consider `O=C1c2c(O)ccc(O)c2C(=O)c2c(NCCNCCO)ccc(NCCNCCO)c21` [Mitoxantrone], for which the normalized bacterial growth is 1.1. `COc1cc(O)cc(OC)c1OC` had a normalized bacterial growth of 0.942. Turning to `O=C(NC(Cc1cc(=O)[nH]c2ccccc12)C(=O)O)c1ccc(Cl)cc1` (stereo not drawn), the normalized bacterial growth amounted to 1.17. Consider `CCN1C(=O)C=CC1=O` [N-Ethylmaleimide], for which the normalized bacterial growth amounted to 0.969. For `CC(C)(C)NC[C@H](O)COc1cccc2c1CCCC2=O`, the normalized bacterial growth was determined as 1.09. In turn, `CC(C)(C)NC[C@H](O)COc1cccc2c1CCCC2=O` [(-) -Levobunolol hydrochloride] displayed a normalized bacterial growth of 0.967. `C[N+](C)(C)CCOC(N)=O` [Carbachol] returned a normalized bacterial growth of 0.847.

Compound `COC(=O)C[C@H]1C2(C)CC34OC5(C)O[C@@]6([C@H](OC)C(OC(=O)C(C)C)[C@]7(C)C(/C(=C(/OC)C(C)C)C(=O)O[C@H]7c7ccoc7)[C@@]6(O5)[C@H](OC)[C@@]3(OC)C2OC(C)=O)[C@]14C` (stereo partly drawn) gave a normalized bacterial growth of 0.709. Consider `Nc1ncn(C2OC(CO)C(O)C2O)c(=O)n1` (stereo not drawn) [Azacytidine-5], for which the normalized bacterial growth is 0.023. `COC(=O)[C@H]1[C@H]2C[C@H]3c4[nH]c5cc(OC)ccc5c4CCN3C[C@H]2C[C@@H](OC(=O)c2cc(OC)c(OC)c(OC)c2)[C@@H]1OC` had a normalized bacterial growth of 0.585. The same measure for `CN(C)CCc1c[nH]c2ccc(CS(=O)(=O)N3CCCC3)cc12`: 0.91; for `COc1cc(/C=C/CO)ccc1O`: 0.851.

The compound `O=C(O)CCC(=O)c1ccc(-c2ccccc2)cc1` had a normalized bacterial growth of 1.14.

Consider `C[C@H]1[C@H](C)CC[C@]2(C(=O)O)CC[C@]3(C)C(=CC[C@@H]4[C@@]5(C)C[C@@H](O)[C@H](O)[C@@](C)(CO)[C@@H]5[C@H](O)C[C@]43C)[C@H]12`, for which the normalized bacterial growth came to 0.99 ± 0.27. Turning to `CCN1CCCC1CNC(=O)c1cc(S(N)(=O)=O)ccc1OC` (single isomer, unassigned; (-)) [(-)-Sulpiride], the normalized bacterial growth stood at 1.12. The same measure for `CN1CCN2c3ccccc3Cc3ccccc3C2C1` (stereo not drawn) [Mianserin hydrochloride]: 1.35; for `CCC(C)C(NC)C(=O)O` (stereo not drawn): 1.03; for `CCCCS(=N)(=O)CCC(N)C(=O)O` [L-Buthionine-sulfoximine]: 1.22.

As for `COc1cccc(OC)c1OCCNCC1CSc2ccccc2O1` (stereo not drawn) [Benoxathian hydrochloride], the normalized bacterial growth was 0.964. `CC(=O)O[C@@H]1CC2C(C)(C)[C@H](O)CC[C@]2(C)C2CC[C@@]3(C)[C@H](c4ccoc4)OC(=O)C4OC43[C@@]21C` (stereo partly drawn) [alpha-DIHYDROGEDUNOL]: the normalized bacterial growth amounted to 0.815. Take `CCC(C)(C)C(=O)O[C@H]1C[C@@H](C)C=C2C=C[C@H](C)[C@H](CC[C@@H]3C[C@@H](O)CC(=O)O3)[C@H]21`: the normalized bacterial growth was found to be 0.888. Regarding `CC1(C)CC2C1CC[C@]1(CBr)CCC3C(CC(=O)O)C(=O)O[C@@]32C1` (stereo partly drawn) [BROMO-3-HYDROXY-4-(SUCCIN-2-YL)-CARYOLANE gamma-LACTONE], the normalized bacterial growth came out at 1.08.

For `COc1cc(CNC(=O)CCCCCCC(C)C)ccc1O` [Dihydrocapsaicin], the normalized bacterial growth came out at 0.42. The compound `CCCc1nn(C)c2c(=O)[nH]c(-c3cc(S(=O)(=O)N4CCN(C)CC4)ccc3OCC)nc12` showed a normalized bacterial growth of 0.9. For the compound `COc1cc(O)c(C(=O)/C=C/c2ccccc2)c(OC)c1`, the normalized bacterial growth stood at 0.454. `O=C1CC[C@]23/C=C/C(=O)NCCCCNCCCNC(=O)/C=C/c4ccc(c2c4)O[C@@H]3C1` gave a normalized bacterial growth of 1.06. The same measure for `C=C[C@@]1(C)CC(=O)[C@@]2(O)[C@](C)(O1)[C@@H](O)[C@@H](O)C1C(C)(C)CC[C@H](O)[C@@]12C` (stereo partly drawn): 1.01; for `OC[C@H]1NC[C@@H](O)[C@@H]1O` ["1,4-Dideoxy-1,4-imino-D-arabinitol"]: 1.12. `Cc1nc2c([nH]1)c(=O)n(C)c(=O)n2Cc1ccco1` [Furafylline]: the normalized bacterial growth came out at 1.02. In the case of `COc1ccc(C(C)=O)c(OC)c1` it was 1.16; in that of `CC(NCCc1ccc(O)cc1)C(O)c1ccc(O)cc1` (stereo not drawn), 1.16; in that of `CC(NCCc1ccc(O)cc1)C(O)c1ccc(O)cc1` (stereo not drawn) [Ritodrine hydrochloride], 1.12 ± 0.061. As to `NC[C@@H]1O[C@H](O[C@H]2[C@@H](O)[C@H](O[C@@H]3[C@@H](O)[C@H](N)C[C@H](N)[C@H]3O[C@H]3O[C@H](CN)[C@@H](O)[C@H](O)[C@H]3N)O[C@@H]2CO)[C@H](N)[C@@H](O)[C@@H]1O`, the normalized bacterial growth came out at 1.11. Take `CCC1(C)CC(=O)NC1=O` (stereo not drawn) [Ethosuximide]: the normalized bacterial growth was 1.22.

As to `NC1CONC1=O` (racemic) [DL-Cycloserine], the normalized bacterial growth was found to be 1.05. The compound `OCCN1CCN(CC/C=C2/c3ccccc3Sc3ccc(Cl)cc32)CC1` [Zuclopenthixol hydrochloride] showed a normalized bacterial growth of 1.16. For `Cc1c(S(=O)(=O)O)oc2c1C(=O)C(=O)c1c-2ccc2c1CCCC2(C)C`, the normalized bacterial growth came out at 0.684.

On to `NCCCS(=O)(=O)O`, for which the normalized bacterial growth stood at 1.06. Turning to `NCCCS(=O)(=O)O` [3-Amino-1-propanesulfonic acid sodium], the normalized bacterial growth came out at 0.687. In the case of `Nc1nc(/C(=C/CC(=O)O)C(=O)N[C@@H]2C(=O)N3C(C(=O)O)=CCS[C@H]23)cs1`, the normalized bacterial growth turned out to be 0.996. Take `C=CCN1CCc2cc(O)c(O)cc2C(c2ccccc2)C1` (stereo not drawn): the normalized bacterial growth turned out to be 0.943. As for `O=C(/C=C/c1ccccc1)c1ccc(O)cc1`, the normalized bacterial growth was 1.12. `CC1=CC(=O)C2=C(C)CC[C@@H]3[C@H](OC(=O)[C@H]3C)[C@@H]12` had a normalized bacterial growth of 0.81. The same measure for `CN(C)CCOC(=O)C(c1ccccc1)C1(O)CCCC1` (stereo not drawn): 1.11; for `Nc1ccc(/N=N/c2ccccc2)c(N)n1`: 0.702; for `CCC(=O)O[C@]1(C(=O)SCF)[C@H](C)C[C@H]2[C@@H]3C[C@H](F)C4=CC(=O)C=C[C@]4(C)[C@@]3(F)[C@@H](O)C[C@@]21C` [Fluticasone propionate]: 0.925. The same measure for `C[N+]1(C)CCCC1C(=O)O` (stereo not drawn) [Stachydrine hydrochloride]: 1.15. The same measure for `O=C(O)c1ccccc1Nc1cccc(C(F)(F)F)c1`: 1.39; for `CC[N+](C)(CC)CCC[n+]1c(-c2ccccc2)c2cc(N)ccc2c2ccc(N)cc21` [Propidium iodide]: 1.35. The compound `OCCc1ccccc1` came in with a normalized bacterial growth of 1.17. The same measure for `CC(=O)Nc1ccc(S(=O)(=O)c2ccc(NC(C)=O)cc2)cc1`: 0.976; for `O=C1O[C@H]([C@@H](O)CO)C(O)=C1O`: 0.789. For `O=C1O[C@H]([C@@H](O)CO)C(O)=C1O` [Ascorbic acid], the normalized bacterial growth was determined as 1.24. Take `Clc1ccc(C(c2ccccc2Cl)C(Cl)Cl)cc1` (stereo not drawn) ["1-(2-Chlorophenyl)-1-(4-chlorophenyl)-2,2-dichloroethane"]: the normalized bacterial growth was found to be 0.7. The compound `C[C@@H]1CC[C@@]2(OC1)O[C@H]1C[C@H]3[C@@H]4CC=C5C[C@@H](O)CC[C@]5(C)[C@H]4CC[C@]3(C)[C@H]1[C@@H]2C` displayed a normalized bacterial growth of 1.26. For `CC(=O)Oc1cc(C)c2c(c1C=O)Oc1c(c(C)c(OC(C)=O)c3c1C(OC(C)=O)OC3=O)OC2=O` (stereo not drawn), the normalized bacterial growth worked out at 0.926. In the case of `Nc1ccc(C(=O)O)c(O)c1` it was 0.972; in that of `CCCCCCCCCCCCCCCCCCNC(=O)OCC(COP(=O)([O-])OCC[n+]1ccsc1)OC` (stereo not drawn), 1.17.

For the origin of these results see the supplement of paper PMC10398353.
